Measurements reported in PubChem BioAssay AID1671195 (Yale University, 2021).
Here is a random part of about 22,000 reagents. About 1,510 of all reagents (6.9%) count as active. 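Active includes knockdowns raising or lowering LDL uptake; positive z-scores mean more uptake, negative mean less.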

Assay: 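Knockdowns that increase or decrease uptake of fluorescent LDL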 (primary screen)
Cells: human Huh7 hepatoma cells
Reagent: siRNA pool against human genes, 18 nM
Duration: about 2 to 2.5 days of knockdown, then 8 h LDL uptake
Treatment: DiI-labelled LDL at 30 µg/ml for 8 h, in lipoprotein-deficient serum medium
Measured: 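Fluorescent LDL signal imaged in cells, scaled to the plate median, robust z-score for each replicate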
Scale: robust z-score: higher = more LDL uptake after knockdown
Hit rule: 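Active when two or more replicates show a robust z-score above 2 or below -2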

{"target":"SKIDA1","robust z-score, replicate 1":-0.348,"robust z-score, replicate 2":-0.177,"robust z-score, replicate 3":-0.238,"Outcome":"inactive"}
{"target":"LINC00869","robust z-score, replicate 1":0.395,"robust z-score, replicate 2":-0.472,"robust z-score, replicate 3":-1.06,"Outcome":"inactive"}
{"target":"MSH3","robust z-score, replicate 1":2.01,"robust z-score, replicate 2":2.17,"robust z-score, replicate 3":1.99,"Outcome":"active"}
{"target":"ATP6V1G3","robust z-score, replicate 1":-0.354,"robust z-score, replicate 2":-0.32,"robust z-score, replicate 3":0.0998,"Outcome":"inactive"}
{"target":"PNISR","robust z-score, replicate 1":0.917,"robust z-score, replicate 2":-0.198,"robust z-score, replicate 3":-1.01,"Outcome":"inactive"}
{"target":"AUNIP","robust z-score, replicate 1":-0.476,"robust z-score, replicate 2":-0.436,"robust z-score, replicate 3":-1.16,"Outcome":"inactive"}
{"target":"CCDC186","robust z-score, replicate 1":0.479,"robust z-score, replicate 2":-0.877,"robust z-score, replicate 3":-0.446,"Outcome":"inactive"}
{"target":"DIPK2B","robust z-score, replicate 1":-0.638,"robust z-score, replicate 2":-1.32,"robust z-score, replicate 3":-0.602,"Outcome":"inactive"}
{"target":"ZMAT3","robust z-score, replicate 1":-0.484,"robust z-score, replicate 2":-0.475,"robust z-score, replicate 3":-0.64,"Outcome":"inactive"}
{"target":"RHOT1","robust z-score, replicate 1":-0.355,"robust z-score, replicate 2":-0.428,"robust z-score, replicate 3":0.261,"Outcome":"inactive"}
{"target":"LOC388959 (retired record)","robust z-score, replicate 1":1.99,"robust z-score, replicate 2":1.15,"robust z-score, replicate 3":1.1,"Outcome":"inactive"}
{"target":"LOC441153 (retired record)","robust z-score, replicate 1":-0.566,"robust z-score, replicate 2":-1.17,"robust z-score, replicate 3":-1.49,"Outcome":"inactive"}
{"target":"EIF1AX","robust z-score, replicate 1":-1.54,"robust z-score, replicate 2":-1.2,"robust z-score, replicate 3":-1.19,"Outcome":"inactive"}

Continued (2 carried over from the part before).
{"target":"LOC441153 (retired record)","robust z-score, replicate 1":-0.566,"robust z-score, replicate 2":-1.17,"robust z-score, replicate 3":-1.49,"Outcome":"inactive"}
{"target":"EIF1AX","robust z-score, replicate 1":-1.54,"robust z-score, replicate 2":-1.2,"robust z-score, replicate 3":-1.19,"Outcome":"inactive"}
{"target":"OR51B6","robust z-score, replicate 1":1.25,"robust z-score, replicate 2":1.05,"robust z-score, replicate 3":1.53,"Outcome":"inactive"}
{"target":"H4C3","robust z-score, replicate 1":-1.26,"robust z-score, replicate 2":-0.946,"robust z-score, replicate 3":-0.858,"Outcome":"inactive"}
{"target":"TOB2P1","robust z-score, replicate 1":-0.803,"robust z-score, replicate 2":-0.758,"robust z-score, replicate 3":-0.352,"Outcome":"inactive"}
{"target":"OTOP2","robust z-score, replicate 1":2.27,"robust z-score, replicate 2":0.367,"robust z-score, replicate 3":0.0367,"Outcome":"inactive"}
{"target":"VN1R2","robust z-score, replicate 1":-0.634,"robust z-score, replicate 2":-1.34,"robust z-score, replicate 3":-0.551,"Outcome":"inactive"}
{"target":"GSK3B","robust z-score, replicate 1":-0.18,"robust z-score, replicate 2":0.681,"robust z-score, replicate 3":0.968,"Outcome":"inactive"}
{"target":"GTSCR1","robust z-score, replicate 1":-0.428,"robust z-score, replicate 2":-0.529,"robust z-score, replicate 3":-0.0628,"Outcome":"inactive"}
{"target":"TMEM240","robust z-score, replicate 1":2.69,"robust z-score, replicate 2":2.83,"robust z-score, replicate 3":2.71,"Outcome":"active"}
{"target":"ADAMTS15","robust z-score, replicate 1":2.02,"robust z-score, replicate 2":1.23,"robust z-score, replicate 3":1.63,"Outcome":"inactive"}
{"target":"HSF2BP","robust z-score, replicate 1":-1.29,"robust z-score, replicate 2":-0.87,"robust z-score, replicate 3":-0.281,"Outcome":"inactive"}
{"target":"DDX46","robust z-score, replicate 1":0.556,"robust z-score, replicate 2":-0.145,"robust z-score, replicate 3":0.0222,"Outcome":"inactive"}
{"target":"LPAR6","robust z-score, replicate 1":0.027,"robust z-score, replicate 2":0.728,"robust z-score, replicate 3":0.18,"Outcome":"inactive"}
{"target":"TGFB1","robust z-score, replicate 1":0.174,"robust z-score, replicate 2":0.158,"robust z-score, replicate 3":0.244,"Outcome":"inactive"}
{"target":"LOC387761 (retired record)","robust z-score, replicate 1":1.22,"robust z-score, replicate 2":0.747,"robust z-score, replicate 3":0.921,"Outcome":"inactive"}
{"target":"NARS2","robust z-score, replicate 1":0.52,"robust z-score, replicate 2":-0.157,"robust z-score, replicate 3":-0.981,"Outcome":"inactive"}
{"target":"LOC393078","robust z-score, replicate 1":-0.773,"robust z-score, replicate 2":-1.59,"robust z-score, replicate 3":-1.5,"Outcome":"inactive"}
{"target":"MTHFD2","robust z-score, replicate 1":-0.887,"robust z-score, replicate 2":-0.832,"robust z-score, replicate 3":-0.905,"Outcome":"inactive"}
